Measurements reported in PubChem BioAssay AID602196 (INSERM, 2012)
Shown is an unselected part of about 23,000 reagents tested. Of all reagents, 455 (2%) got an active call. 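Active includes both protection and sensitisation; some change values fall well beyond the stated -50 to +50 range.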 Not given: the amount of reagent.

Assay: 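Modifiers of cisplatin sensitivity in A549 cells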
Cell system: human A549 lung cancer cells
Reagents: siRNA pair against human genes
Timing: 48 h transfection before cisplatin; time from cisplatin to read-out not stated
Conditions: cisplatin at a dose killing half of control-siRNA cells; exact dose and duration not given
Read-out: 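Cisplatin cell death as a shift from the 50% death seen with control siRNA; siRNAs toxic or growth-blocking alone scored 0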
Reading the numbers: two-siRNA summed score (-2 to +2): higher = both siRNAs protect from cisplatin killing; -2 means both sensitise; mean protection from cisplatin (shift in death) and protection from cisplatin (shift in death), siRNA C and protection from cisplatin (shift in death), siRNA D: higher = protection from cisplatin killing
Hit rule: 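Each siRNA scores 0 if harmful alone by LDH or WST-1, otherwise +1 if it reduces and -1 if it increases cisplatin killing; a gene is active when both siRNAs agree (sum +2 or -2)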
Calls: active = both siRNAs shift cisplatin killing the same way; inactive = no consistent shift, or siRNA harmful alone

Target gene	two-siRNA summed score (-2 to +2)	mean protection from cisplatin (shift in death) (%)	protection from cisplatin (shift in death), siRNA C (%)	protection from cisplatin (shift in death), siRNA D (%)	outcome
IER3IP1 (immediate early response 3 interacting protein 1)	0	1.8	-7.1	10.6	inactive
RNF145 (ring finger protein 145)	1	-4.1	12.2	-20.4	inactive
PLG (plasminogen)	-1	-12.5	-28.5	3.6	inactive
SSMEM1 (serine rich single-pass membrane protein 1)	1	17.1	26.4	7.8	inactive
DOCK5 (dedicator of cytokinesis 5)	0	4.5	10.6	-1.7	inactive
KIF19 (kinesin family member 19)	0	1.7	-12.8	16.3	inactive
SCP2	0	8	11.4	4.7	inactive
TBX22 (T-box transcription factor 22)	0	5.3	5.1	5.4	inactive
HOXA3 (homeobox A3)	1	15.9	6.8	24.9	inactive
LOC389904	1	17.3	21.6	13	inactive
PCDHA11 (protocadherin alpha 11)	0	12.9	12.3	13.5	inactive
AKR1B1 (aldo-keto reductase family 1 member B)	0	0.6	6.2	-5	inactive
LOC341412	0	20.8	18.9	22.6	inactive
ZBED2 (zinc finger BED-type containing 2)	0	7.3	9	5.5	inactive
PPIF (peptidylprolyl isomerase F)	0	-0.2	2.4	-2.7	inactive
ST3GAL4 (ST3 beta-galactoside alpha-2,3-sialyltransferase 4)	0	-2.2	-0.8	-3.5	inactive
ZBED8 (zinc finger BED-type containing 8)	0	-11.1	-0.9	-21.4	inactive
NFIC (nuclear factor I C)	0	10.4	4.9	15.9	inactive
KIAA1958	0	-3.5	5.2	-12.2	inactive
DMGDH (dimethylglycine dehydrogenase)	1	3.6	-5.3	12.5	inactive
SYF2 (SYF2 pre-mRNA splicing factor)	0	-5.2	-12.3	1.9	inactive
GJA8 (gap junction protein alpha 8)	0	12.3	4	20.6	inactive
VIP (vasoactive intestinal peptide)	0	-12.3	-21.4	-3.3	inactive
MOB1B (MOB kinase activator 1B)	0	4.1	4.2	4	inactive
NDUFV1 (NADH:ubiquinone oxidoreductase core subunit V1)	-1	-14	-28.3	0.2	inactive
LOC90193	0	3.7	-3.1	10.6	inactive
LOC440262	0	-3.8	-4.4	-3.2	inactive
NR1H4 (nuclear receptor subfamily 1 group H member 4)	0	5.5	1.6	9.3	inactive
FLJ40311	0	12.4	17.6	7.2	inactive
LOC440053	0	13.1	22.3	3.9	inactive
RNF7 (ring finger protein 7)	0	-1.7	9.6	-13.1	inactive
BRF2 (BRF2 general transcription factor IIIB subunit)	0	-6.6	0.3	-13.6	inactive
KIFC1 (kinesin family member C1)	0	3.2	-3.1	9.4	inactive
SLC24A4	0	6.4	9	3.8	inactive
SCNN1B (sodium channel epithelial 1 subunit beta)	1	18.6	11.2	25.9	inactive
JPH4 (junctophilin 4)	0	-1.6	-8.3	5.1	inactive
DIRAS2 (DIRAS family GTPase 2)	0	5.9	9.6	2.3	inactive
C11orf42 (chromosome 11 open reading frame 42)	0	-7.2	-27.8	13.4	inactive
ZXDA (zinc finger X-linked duplicated A)	0	5.4	19	-8.2	inactive
HLA-DQA1 (major histocompatibility complex, class II, DQ alpha 1)	0	-1	2.7	-4.7	inactive
CRAT (carnitine O-acetyltransferase)	1	7.9	29.8	-14	inactive
LOC390557	1	17.8	18.9	16.7	inactive
KIF25 (kinesin family member 25)	0	-5.1	4.1	-14.3	inactive
GJA4 (gap junction protein alpha 4)	-1	-7.3	-19.8	5.1	inactive
MRAS (muscle RAS oncogene homolog)	0	2.6	5.5	-0.3	inactive
ARID4B (AT-rich interaction domain 4B)	0	0.2	-13.8	14.2	inactive
LOC284672	-1	-8.1	3.2	-19.5	inactive
CDIN1 (CDAN1 interacting nuclease 1)	-1	-7	3	-17	inactive
MCCC2 (methylcrotonyl-CoA carboxylase subunit 2)	0	-0.5	-10.7	9.8	inactive
LOC392473	0	4.3	4.2	4.3	inactive
LOC402687	0	3.4	-1.4	8.2	inactive
DPH7 (diphthamide biosynthesis 7)	0	-2.1	6.7	-10.9	inactive
RNF149 (ring finger protein 149)	0	13.1	18.4	7.8	inactive
ANKRD2 (ankyrin repeat domain 2)	0	10.3	10	10.5	inactive
LOC440572	0	-0.8	2.5	-4	inactive
IFI27 (interferon alpha inducible protein 27)	1	15.7	5.6	25.9	inactive
EIF1 (eukaryotic translation initiation factor 1)	0	-2.4	-1.2	-3.6	inactive
PIM1 (Pim-1 proto-oncogene, serine/threonine kinase)	1	7.1	25.4	-11.2	inactive
PLA2G10 (phospholipase A2 group X)	-2	-30.4	-27.4	-33.3	active
ATP1A1 (ATPase Na+/K+ transporting subunit alpha 1)	1	15	17	12.9	inactive
SLC25A46	0	4.6	9	0.3	inactive
DORIP1 (dopamine receptor interacting protein 1)	0	17.7	16.5	18.9	inactive
CHD4 (chromodomain helicase DNA binding protein 4)	0	-4.1	5.2	-13.3	inactive
SORBS1 (sorbin and SH3 domain containing 1)	0	-10.5	-1.6	-19.5	inactive
LOC440396	0	4.8	-0.9	10.5	inactive
MIR137HG (MIR137 host gene)	0	6.1	8.4	3.9	inactive
RALY (RALY heterogeneous nuclear ribonucleoprotein)	0	7.6	0.9	14.4	inactive
FERMT2 (FERM domain containing kindlin 2)	0	4.7	4	5.3	inactive
BMP5 (bone morphogenetic protein 5)	0	3.6	7.8	-0.7	inactive
GYG1 (glycogenin 1)	1	-3.5	-19.2	12.1	inactive
HTR3C (5-hydroxytryptamine receptor 3C)	1	21.7	37.6	5.8	inactive
LBP (lipopolysaccharide binding protein)	0	0.9	-8	9.8	inactive
GPR149 (G protein-coupled receptor 149)	-1	-5.2	-0.6	-9.7	inactive

Records above whose target name starts with F or f:
Target gene	two-siRNA summed score (-2 to +2)	mean protection from cisplatin (shift in death) (%)	protection from cisplatin (shift in death), siRNA C (%)	protection from cisplatin (shift in death), siRNA D (%)	outcome
FLJ40311	0	12.4	17.6	7.2	inactive
FERMT2 (FERM domain containing kindlin 2)	0	4.7	4	5.3	inactive
